Reference: US20180237511A1 (Sanofi, published 2018)
These are yes or no findings as the source states them, for the method shown. Binding calls can cover weak binding; strength is not graded here.

Protein sequences, listed by entry. Tags and fused reporters are not part of them. Lines headed by an entry give the natural chain unless they say otherwise; changes in a name come on top.
UniProt Q62165: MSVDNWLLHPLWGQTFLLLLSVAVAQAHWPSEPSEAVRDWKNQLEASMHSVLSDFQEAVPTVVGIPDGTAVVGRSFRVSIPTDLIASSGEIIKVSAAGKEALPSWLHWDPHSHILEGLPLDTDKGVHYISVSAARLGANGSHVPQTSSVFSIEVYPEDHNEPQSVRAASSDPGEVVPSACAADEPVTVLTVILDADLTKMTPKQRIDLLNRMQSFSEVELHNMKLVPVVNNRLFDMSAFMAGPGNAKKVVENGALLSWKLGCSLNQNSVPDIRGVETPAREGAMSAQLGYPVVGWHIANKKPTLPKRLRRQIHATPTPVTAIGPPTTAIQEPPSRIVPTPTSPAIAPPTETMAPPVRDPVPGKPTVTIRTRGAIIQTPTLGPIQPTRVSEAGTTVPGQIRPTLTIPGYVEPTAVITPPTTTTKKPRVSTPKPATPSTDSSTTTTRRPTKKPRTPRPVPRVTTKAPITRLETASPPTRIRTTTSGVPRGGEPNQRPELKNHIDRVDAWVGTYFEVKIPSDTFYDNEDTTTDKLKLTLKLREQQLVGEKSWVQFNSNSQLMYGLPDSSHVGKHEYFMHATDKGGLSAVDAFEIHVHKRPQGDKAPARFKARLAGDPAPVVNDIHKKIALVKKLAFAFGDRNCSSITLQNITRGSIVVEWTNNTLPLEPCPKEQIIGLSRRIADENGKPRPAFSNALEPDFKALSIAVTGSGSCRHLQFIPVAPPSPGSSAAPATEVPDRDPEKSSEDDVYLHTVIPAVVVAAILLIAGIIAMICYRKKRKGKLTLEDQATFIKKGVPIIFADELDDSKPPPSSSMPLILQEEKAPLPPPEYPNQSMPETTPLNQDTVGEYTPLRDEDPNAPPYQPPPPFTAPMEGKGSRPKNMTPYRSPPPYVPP
UniProt Q14118: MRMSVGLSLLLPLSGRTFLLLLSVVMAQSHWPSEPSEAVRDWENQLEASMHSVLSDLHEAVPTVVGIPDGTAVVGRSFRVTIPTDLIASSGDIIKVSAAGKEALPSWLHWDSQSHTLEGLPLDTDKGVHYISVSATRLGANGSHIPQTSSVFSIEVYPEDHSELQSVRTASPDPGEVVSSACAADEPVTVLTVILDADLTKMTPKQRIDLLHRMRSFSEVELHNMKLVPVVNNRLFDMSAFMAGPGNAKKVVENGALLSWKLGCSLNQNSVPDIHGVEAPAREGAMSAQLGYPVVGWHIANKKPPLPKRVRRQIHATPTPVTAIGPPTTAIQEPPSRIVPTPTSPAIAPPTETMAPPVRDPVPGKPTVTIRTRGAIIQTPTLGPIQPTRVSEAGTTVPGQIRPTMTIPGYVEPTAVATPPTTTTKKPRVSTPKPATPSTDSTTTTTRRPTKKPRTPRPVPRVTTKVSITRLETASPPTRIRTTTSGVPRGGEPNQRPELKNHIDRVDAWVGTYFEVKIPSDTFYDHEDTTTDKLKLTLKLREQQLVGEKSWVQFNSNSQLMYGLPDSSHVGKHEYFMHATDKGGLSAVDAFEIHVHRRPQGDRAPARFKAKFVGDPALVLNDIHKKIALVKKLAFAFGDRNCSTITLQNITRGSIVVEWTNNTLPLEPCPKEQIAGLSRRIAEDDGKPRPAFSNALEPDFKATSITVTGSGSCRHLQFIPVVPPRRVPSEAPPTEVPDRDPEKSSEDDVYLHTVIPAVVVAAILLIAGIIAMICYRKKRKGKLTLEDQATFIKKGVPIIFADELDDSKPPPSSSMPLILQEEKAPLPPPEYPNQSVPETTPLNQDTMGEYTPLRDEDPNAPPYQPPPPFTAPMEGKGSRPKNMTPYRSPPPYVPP

How the values were obtained:
[1] = target: murine beta-dystroglycan extracellular domain (mbeta-DG ECD), HPC4 tagged (mouse); experiment: sequential Biacore; antibody on CM5 chip, LG-4/5 then beta-DG in flow
[2] = target: beta-DG in unfixed frozen mouse muscle tissue sections (mouse) (UniProt Q62165); experiment: immunofluorescence on unfixed frozen muscle tissue sections
[3] = target: beta-DG in unfixed frozen human muscle tissue sections (human) (UniProt Q14118); experiment: as above
[4] = target: murine beta-dystroglycan extracellular domain (mbeta-DG ECD), HPC4 tagged (mouse); experiment: dot blot: protein dotted on nitrocellulose, probed with the antibody
[5] = target: murine beta-dystroglycan extracellular domain (mbeta-DG ECD), HPC4 tagged (mouse); experiment: sequential SPR (Biacore): antibody immobilised on a CM5 chip, murine LG-4/5 and then murine beta-DG flowed over
[6] = target: murine beta-dystroglycan extracellular domain (mbeta-DG ECD), HPC4 tagged (mouse); experiment: dot blot on nitrocellulose
[7] = target: murine beta-dystroglycan extracellular domain (mbeta-DG ECD), HPC4 tagged (mouse); experiment: phage ELISA; phage monoclonal antibody on coated antigen
[8] = target: laminin-2 (LG-4/5) in unfixed frozen mouse muscle tissue sections (mouse); experiment: immunofluorescence on unfixed frozen muscle tissue sections

| Binder | binding [1] | binding [5] | other results |
| --- | --- | --- | --- |
| anti-beta-DG antibody derived from hybridoma clone AS19 (antibody, V domains shown, Hybridoma monoclonal antibody (detected with anti-mouse IgG)) VH: QVQLQQSGPELVKPGASVKMSCKASGFTFTDSVISWVKQRTGQGLEWIGEIYPGSGSIYYNEKFKGKATLTADKSSNTAYMQLRSLTSEDSAVYFCAMRRSYWGQGTLVTVSA VL: DVLMTQTPLSLPVSLGDQASISCRSSQSIVHSNGNTYLEWYLQKPGQSPKLLIYKVSNRFSGVPDRFSGSGSGTDFTLKISRVEAEDLGVYYCFQGSHVPLTFGAGTKLELK | binds | binds | binding [2]: binds; binding [3]: binds; binding [4]: binds; binding [6]: binds |
| bispecific antibody C5C6: anti-beta-DG(AS30) x anti-laminin-2(C3), CODV with 10-10-0-0 linker (bispecific antibody, IgG1, not shown: a dimerising Fc or GST) heavy: QIQLQQSGPELVKPGASVKMSCEASGFTFTDSVITWVKQRPGQGLEWIGEIYPGSGNFYYNEKFKGKATLTADKSSNTAYMQLRSLTSEDSAVYFCAMRRSSWGQGTLVTVSADVMLVESGGDLVKPGGSLKLSCAASGFTFSSYTMSWVRQTPEKRLEWVASISSGGGNTYYPDSVKGRFTISRDNAKNNLYLQMSSLRSEDTALYYCARFDYGSSLDSWGQGTTLTVSS light: DIVLTQSPATLSVTPGDSVSLSCRASQSISNNLHWYQQKSHESPRLLIKYASQSISGIPSRFSGSGSGTDFTLSINSVETEDFGMYFCQQSKNWPRTFGGGTKLEIKGGSGSSGSGGDVLMTQTPLSLPVSLGDQASISCRSSQTIVHSNSKTYLEWYLQKPGQSPKLLIYKVSNRFSGVPDRFSGSGSGTDFTLKISRVEAEDLGVYYCFQGSHVPLTFGAGTKLELKGGSGSSGSGG | binds | binds |  |
| bispecific antibody T1T2: anti-beta-DG(AS19) x anti-laminin-2(C3), TBTI with (GGGGS)2 linker (bispecific antibody, also called AS19xC3 in TBTI; biAb (AS19xC3); not shown: IgG1 heavy chain constant region: murine IgG1 (GenBank AAA75163.1) or human IgG1 (Genbank Q569F4); murine IgG backbone i; kappa light chain constant region: murine kappa chain (Genbank BAB33404) or human kappa chain (Genbank Q502W4)) heavy: QVQLQQSGPELVKPGASVKMSCKASGFTFTDSVISWVKQRTGQGLEWIGEIYPGSGSIYYNEKFKGKATLTADKSSNTAYMQLRSLTSEDSAVYFCAMRRSYWGQGTLVTVSAGGGGSGGGGSDVMLVESGGDLVKPGGSLKLSCAASGFTFSSYTMSWVRQTPEKRLEWVASISSGGGNTYYPDSVKGRFTISRDNAKNNLYLQMSSLRSEDTALYYCARFDYGSSLDSWGQGTTLTVSS light: DVLMTQTPLSLPVSLGDQASISCRSSQSIVHSNGNTYLEWYLQKPGQSPKLLIYKVSNRFSGVPDRFSGSGSGTDFTLKISRVEAEDLGVYYCFQGSHVPLTFGAGTKLELKGGGGSGGGGSDIVLTQSPATLSVTPGDSVSLSCRASQSISNNLHWYQQKSHESPRLLIKYASQSISGIPSRFSGSGSGTDFTLSINSVETEDFGMYFCQQSKNWPRTFGGGTKLEIK | binds | binds |  |
| bispecific antibody T5T6: anti-beta-DG(AS30) x anti-laminin-2(C3), TBTI with (GGGGS)2 linker (bispecific antibody, not shown: a dimerising Fc or GST) heavy: QIQLQQSGPELVKPGASVKMSCEASGFTFTDSVITWVKQRPGQGLEWIGEIYPGSGNFYYNEKFKGKATLTADKSSNTAYMQLRSLTSEDSAVYFCAMRRSSWGQGTLVTVSAGGGGSGGGGSDVMLVESGGDLVKPGGSLKLSCAASGFTFSSYTMSWVRQTPEKRLEWVASISSGGGNTYYPDSVKGRFTISRDNAKNNLYLQMSSLRSEDTALYYCARFDYGSSLDSWGQGTTLTVSS light: DVLMTQTPLSLPVSLGDQASISCRSSQTIVHSNSKTYLEWYLQKPGQSPKLLIYKVSNRFSGVPDRFSGSGSGTDFTLKISRVEAEDLGVYYCFQGSHVPLTFGAGTKLELKGGGGSGGGGSDIVLTQSPATLSVTPGDSVSLSCRASQSISNNLHWYQQKSHESPRLLIKYASQSISGIPSRFSGSGSGTDFTLSINSVETEDFGMYFCQQSKNWPRTFGGGTKLEIK | binds | binds |  |
| anti-beta-DG antibody derived from phage display clone B04 (antibody, V domains shown, Phage display clone) VH: QVQLQQSGGGLVQPGGSLRLSCAASGFTFSSYAMSWVRQAPGKGLEWVSAISGSGGSTYYADSVKGRFTVSRDNSKNTLYLQMNSLRAEDTAVYYCARLGYCSSTSCYLSAFDIWGQGTMVTVSS VL: EIVLTQSPSTLSASVGDRVTITCRASQSISSWLAWYQQKPGKAPKLLIYDASSLESGVPSRFSGSGSGTEFTLTISSLQPDDFATYYCQQYNSYPLTFGGGTKVEIK |  |  | binding [7]: binds |
| anti-laminin-2 antibody derived from hybridoma clone C21 (antibody, V domains shown, Hybridoma monoclonal antibody (detected with anti-mouse IgG); also called anti-laminin-2(C21)) VH: EVMLVESGGGLVKPGGSLKLSCAASGFTFSSYTMSWVRQTPEKRLEWVATISSGGDNTYYPDSVKGRFTISRDNAKNNLYLQMSSLRSEDTALYYCARFDYGSSLDCWGQGTTLTVSS VL: DIVLTQSPATLSVTPGDSVSLSCRASQSISNYLHWYQQKSHESPRLLIKYASQSISGIPSRFSGSGSGTDFTLSINSVETEDFGMYFCQQSKSWPRTFGGGTELEIK |  |  | binding [8]: binds |
| anti-laminin-2 antibody derived from hybridoma clone C3 (antibody, V domains shown, Hybridoma monoclonal antibody (detected with anti-mouse IgG); also called C03; anti-laminin-2(C3)) VH: DVMLVESGGDLVKPGGSLKLSCAASGFTFSSYTMSWVRQTPEKRLEWVASISSGGGNTYYPDSVKGRFTISRDNAKNNLYLQMSSLRSEDTALYYCARFDYGSSLDSWGQGTTLTVSS VL: DIVLTQSPATLSVTPGDSVSLSCRASQSISNNLHWYQQKSHESPRLLIKYASQSISGIPSRFSGSGSGTDFTLSINSVETEDFGMYFCQQSKNWPRTFGGGTKLEIK |  |  | binding [8]: binds |
